In this test the target is GAL4 activation domain fusion to HAB1^!-2 (pACT-HAB1^!-2; HAB1^V393R/R505A) (Arabidopsis thaliana (Mouse-ear cress)) (UniProt Q9CAJ0). Briefly: Y2H, mandipropamid (FIG. 3).

By UniProt entry, the sequences of proteins in these tests, tags left out. Where a name states a change or a piece, a line headed by the entry shows the natural chain unless it says otherwise.
UniProt Q9CAJ0: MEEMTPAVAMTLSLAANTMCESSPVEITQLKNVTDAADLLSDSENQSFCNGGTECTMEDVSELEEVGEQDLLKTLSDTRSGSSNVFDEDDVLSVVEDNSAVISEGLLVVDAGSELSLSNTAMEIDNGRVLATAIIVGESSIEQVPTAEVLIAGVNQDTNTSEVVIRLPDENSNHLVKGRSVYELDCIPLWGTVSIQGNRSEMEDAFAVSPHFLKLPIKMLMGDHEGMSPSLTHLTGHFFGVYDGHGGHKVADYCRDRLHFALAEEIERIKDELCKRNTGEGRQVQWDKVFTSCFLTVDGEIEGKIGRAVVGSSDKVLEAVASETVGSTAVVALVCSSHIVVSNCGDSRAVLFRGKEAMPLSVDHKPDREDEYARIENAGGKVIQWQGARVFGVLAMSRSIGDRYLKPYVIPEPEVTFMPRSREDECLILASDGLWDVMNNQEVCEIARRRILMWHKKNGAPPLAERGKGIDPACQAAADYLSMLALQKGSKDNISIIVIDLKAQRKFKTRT
UniProt O49686: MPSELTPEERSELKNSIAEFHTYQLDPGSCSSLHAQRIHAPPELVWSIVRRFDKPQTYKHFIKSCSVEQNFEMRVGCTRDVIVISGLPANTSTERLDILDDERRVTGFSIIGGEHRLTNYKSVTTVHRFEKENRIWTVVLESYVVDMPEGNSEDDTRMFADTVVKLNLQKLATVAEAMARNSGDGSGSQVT

These are yes or no findings as the source states them, for the method shown. Some entries that bind do so weakly or less than the wild type.

In the case of “GAL4 DNA binding domain fusion to PYR1^!-MANDI (PYR1^Y58H;K59R;V81I;F108A;S122G;F159L;T162D) (from UniProt O49686 1-191) (receptor)”, the binding result is recorded as “binds”.

Values taken from US20190389914A1.
